Measured values as given in patent US20240077423A1, “A TRANSCRIPTIONAL REGULATOR SPECIFICALLY RESPONDING TO D-2-HYDROXYGLUTARATE AND APPLICATION THEREOF” (SHANDONG UNIVERSITY, priority 2021, published 2024).
At least one structure is not confirmed: it was looked up by name or label, or the drawing left a doubt.

Test system: binding of DhdR to dhdO
Assay: Analysis of DhdR effector by electrophoretic mobility shift assays
Design: species or system Achromobacter denitrificans NBRC 15125
Details: 40 mM compound, 70 nM DhdR, dhdO target DNA, EMSA, FIG. 2
Procedure: DhdR is incubated with different compounds (D-2-HG, L-2-HG, D-malate, D-lactate, glutarate, 2-ketoglutarate, or pyruvate) respectively. Then, the target DNA fragment dhdO is added. The influence on the binding capacity of DhdR and the target DNA fragment dhdO in the presence of the different compounds is analyzed through electrophoresis separation, staining, and imaging.
The dhdO nucleotide fragment obtained in step (2) above was diluted to 100 nM using binding buffer, and the purified DhdR protein was diluted to 2000 nM. 70 nM purified DhdR protein was first incubated with 40 mM different compounds (D-2-HG, L-2-HG, D-malate, D-lactate, glutarate, 2-ketoglutarate, or pyruvate) at 30° C. for 15 minutes in 18 μL binding buffer. Subsequently, 2 μL of 100 nM dhdO was added and incubated at 30° C. for another 30 min. 10 μL of the sample was analyzed by electrophoresis with 6% native polyacrylamide at 170 V for 45 min on ice. The gel was then stained with SYBR Green I for 30 min avoiding light and photographed by gel imager. […] DhdR can bind to dhdO in the absence of D-2-HG. However, when D-2-HG is present, DhdR will be dissociated from dhdO.

Compound: CC(=O)C(=O)O [pyruvate]
- effect on the binding of DhdR to dhdO: could not interfere with the binding of DhdR to dhdO
